No constants are given. Whether binding was seen depends on the method and setting. Sequences can lack the tags named with a protein.
Experiments:
[1] = target: H2A peptide (H2A.1 residues 120–132, unmodified) (S. pombe) (UniProt P04909); assay: condition: 5–10 µg of Mdb1 with 2 µg of peptide in 200 µl; pull-down; biotinylated peptide (2 µg) incubated with 5–10 µg purified Mdb1 in 200 µl of 50 mM Tris-HCl pH 7.5, 100 mM NaCl, 0.05% NP-40 at 4°C for 2 hours; pulled down with streptavidin Dynabeads M-280; SDS-PAGE and Coomassie staining; both purified
[2] = target: γH2A peptide (H2A.1 residues 120–132, phosphorylated on Ser-129) (S. pombe) (UniProt P04909); assay: as above

| binding [1] | binding [2] | Binder |
| --- | --- | --- |
| no binding | no binding | Mdb1-S392A (His6-tagged recombinant Mdb1) (protein, UniProt O14079 1-624) MEIQFGNQRCRMVNSGGFLATDGSHLKEMETDDVLVEFLNIEHQLFIRNIRAIVKIADTTVLPSASDKKLLYYVFDETRVRINDTPVIFSKLEEDNANVNEGSKMGVMTVPNTPQKPNLQQQKFEAINANEDQIDYSSNLEQNYNSLIRQGSDQVIPLSRFASEKSALELEKELFSERIPESQSAAEPVLKVENSENDLDEKLVLDGQHVEGDHSSDTEEEVVSEDQKQLNKTDDESTFIESHQIYIQGETKSPSSVSQSLSGDPSLKPAEVFDRKQSAEINSPIEKDVNPQQNISDSSIKNNSIHSDEVNPEVRPDLTPSNENEESKRSAPEIALKEKESTSQDESNREAEEAPISTNYSFPSSSLEDQPDKNVQSSAVENKNKHTNLVTASFNLTKPMKSFIRRNGLRVQESVTDETDFVILGSPPLRRTHKFLLATSLGIPLVSSQYLTDCIKSGKVLDFRSYKYKDEEAEAKWGFRLDDIHRRTCFNGKRLYITKAIRDSMVGDSIHGLYSILETSGAEIVGDIKRAQEKDTIILAQPDNDQEGRNMSATGLNVYKIELVALSILRDRIDFDEFLIDYDADSPTKVIGKRNVSKASRTGQGRKRSSRSSWNKPSAKEQRT |
| no binding | no binding | Mdb1-K434M (His6-tagged recombinant Mdb1) (protein, UniProt O14079 1-624) MEIQFGNQRCRMVNSGGFLATDGSHLKEMETDDVLVEFLNIEHQLFIRNIRAIVKIADTTVLPSASDKKLLYYVFDETRVRINDTPVIFSKLEEDNANVNEGSKMGVMTVPNTPQKPNLQQQKFEAINANEDQIDYSSNLEQNYNSLIRQGSDQVIPLSRFASEKSALELEKELFSERIPESQSAAEPVLKVENSENDLDEKLVLDGQHVEGDHSSDTEEEVVSEDQKQLNKTDDESTFIESHQIYIQGETKSPSSVSQSLSGDPSLKPAEVFDRKQSAEINSPIEKDVNPQQNISDSSIKNNSIHSDEVNPEVRPDLTPSNENEESKRSAPEIALKEKESTSQDESNREAEEAPISTNYSFPSSSLEDQPDKNVQSSAVENKNKHTNLVTSSFNLTKPMKSFIRRNGLRVQESVTDETDFVILGSPPLRRTHMFLLATSLGIPLVSSQYLTDCIKSGKVLDFRSYKYKDEEAEAKWGFRLDDIHRRTCFNGKRLYITKAIRDSMVGDSIHGLYSILETSGAEIVGDIKRAQEKDTIILAQPDNDQEGRNMSATGLNVYKIELVALSILRDRIDFDEFLIDYDADSPTKVIGKRNVSKASRTGQGRKRSSRSSWNKPSAKEQRT |

Source: publication PMC4013092
